Measurements reported in publication PMC5484543.

Sequences of proteins named here, by UniProt entry; tags and fusion partners are left off. Residues count along the entry.
UniProt P04350: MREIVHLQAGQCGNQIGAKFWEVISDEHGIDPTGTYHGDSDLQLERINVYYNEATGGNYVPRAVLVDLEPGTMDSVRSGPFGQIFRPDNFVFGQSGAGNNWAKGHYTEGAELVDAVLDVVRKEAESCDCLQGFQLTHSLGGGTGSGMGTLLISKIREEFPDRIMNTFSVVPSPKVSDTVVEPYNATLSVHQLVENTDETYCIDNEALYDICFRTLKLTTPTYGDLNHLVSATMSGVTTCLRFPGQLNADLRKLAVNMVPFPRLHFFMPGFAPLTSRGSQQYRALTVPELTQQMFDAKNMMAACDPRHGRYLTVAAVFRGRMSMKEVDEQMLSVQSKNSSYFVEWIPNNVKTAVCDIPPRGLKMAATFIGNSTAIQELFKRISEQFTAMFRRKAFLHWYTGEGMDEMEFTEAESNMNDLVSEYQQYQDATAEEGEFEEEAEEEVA
UniProt P27824, residues 21-592: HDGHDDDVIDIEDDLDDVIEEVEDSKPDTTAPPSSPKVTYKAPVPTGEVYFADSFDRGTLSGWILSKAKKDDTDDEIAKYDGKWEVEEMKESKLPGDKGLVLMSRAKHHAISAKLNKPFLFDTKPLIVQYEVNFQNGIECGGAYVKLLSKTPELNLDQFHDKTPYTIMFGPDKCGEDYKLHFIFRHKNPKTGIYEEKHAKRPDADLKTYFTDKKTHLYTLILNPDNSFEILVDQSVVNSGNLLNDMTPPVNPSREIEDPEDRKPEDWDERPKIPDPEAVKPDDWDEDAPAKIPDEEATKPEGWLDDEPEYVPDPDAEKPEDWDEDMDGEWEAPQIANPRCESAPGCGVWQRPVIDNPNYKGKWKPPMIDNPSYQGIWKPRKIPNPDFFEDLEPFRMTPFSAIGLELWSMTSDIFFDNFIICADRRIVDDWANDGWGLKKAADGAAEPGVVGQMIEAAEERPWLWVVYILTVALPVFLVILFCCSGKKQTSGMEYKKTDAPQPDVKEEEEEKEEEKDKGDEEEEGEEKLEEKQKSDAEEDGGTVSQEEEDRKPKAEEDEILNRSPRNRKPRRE
UniProt P25705, residues 44-553: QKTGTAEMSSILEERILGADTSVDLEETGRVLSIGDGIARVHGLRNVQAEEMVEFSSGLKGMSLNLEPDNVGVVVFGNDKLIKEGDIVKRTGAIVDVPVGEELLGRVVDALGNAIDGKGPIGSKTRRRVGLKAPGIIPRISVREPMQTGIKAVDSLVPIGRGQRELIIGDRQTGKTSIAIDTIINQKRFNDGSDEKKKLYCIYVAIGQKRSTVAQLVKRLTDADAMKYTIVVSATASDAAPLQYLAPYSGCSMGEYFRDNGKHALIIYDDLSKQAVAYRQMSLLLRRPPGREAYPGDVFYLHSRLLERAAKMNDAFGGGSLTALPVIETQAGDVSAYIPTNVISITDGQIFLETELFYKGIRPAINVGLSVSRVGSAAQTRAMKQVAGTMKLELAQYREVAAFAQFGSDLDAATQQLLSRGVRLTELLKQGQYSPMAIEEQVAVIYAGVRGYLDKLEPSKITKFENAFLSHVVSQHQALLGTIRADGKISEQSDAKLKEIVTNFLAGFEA
UniProt P38646, residues 47-679: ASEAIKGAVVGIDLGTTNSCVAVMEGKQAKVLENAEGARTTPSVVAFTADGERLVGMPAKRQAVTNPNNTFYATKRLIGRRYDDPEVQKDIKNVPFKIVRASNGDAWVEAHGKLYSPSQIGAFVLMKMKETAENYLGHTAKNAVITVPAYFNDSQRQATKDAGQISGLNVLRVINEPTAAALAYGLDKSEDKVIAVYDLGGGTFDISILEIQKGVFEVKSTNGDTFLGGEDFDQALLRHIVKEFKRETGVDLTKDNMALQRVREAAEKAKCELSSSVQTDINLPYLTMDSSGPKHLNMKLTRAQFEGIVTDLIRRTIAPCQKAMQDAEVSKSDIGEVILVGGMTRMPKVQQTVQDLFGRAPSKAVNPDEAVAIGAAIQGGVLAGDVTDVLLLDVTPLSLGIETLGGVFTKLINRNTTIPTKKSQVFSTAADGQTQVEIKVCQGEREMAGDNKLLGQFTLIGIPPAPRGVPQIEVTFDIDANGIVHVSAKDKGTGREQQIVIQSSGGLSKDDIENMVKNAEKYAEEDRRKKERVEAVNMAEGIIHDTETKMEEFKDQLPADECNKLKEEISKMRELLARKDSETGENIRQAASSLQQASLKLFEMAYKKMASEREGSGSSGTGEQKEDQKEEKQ
UniProt Q13885: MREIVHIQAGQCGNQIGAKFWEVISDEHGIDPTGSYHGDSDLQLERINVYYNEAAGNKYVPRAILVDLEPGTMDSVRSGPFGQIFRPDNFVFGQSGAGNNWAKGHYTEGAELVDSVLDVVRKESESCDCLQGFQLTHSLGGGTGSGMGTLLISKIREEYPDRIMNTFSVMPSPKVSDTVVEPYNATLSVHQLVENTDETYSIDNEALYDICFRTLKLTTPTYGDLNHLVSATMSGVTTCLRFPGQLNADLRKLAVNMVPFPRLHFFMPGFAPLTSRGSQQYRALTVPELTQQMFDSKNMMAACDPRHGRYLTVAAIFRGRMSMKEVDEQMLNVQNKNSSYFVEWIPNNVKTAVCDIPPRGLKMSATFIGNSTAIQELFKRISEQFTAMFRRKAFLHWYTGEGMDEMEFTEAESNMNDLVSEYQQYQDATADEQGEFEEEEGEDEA
UniProt O14983: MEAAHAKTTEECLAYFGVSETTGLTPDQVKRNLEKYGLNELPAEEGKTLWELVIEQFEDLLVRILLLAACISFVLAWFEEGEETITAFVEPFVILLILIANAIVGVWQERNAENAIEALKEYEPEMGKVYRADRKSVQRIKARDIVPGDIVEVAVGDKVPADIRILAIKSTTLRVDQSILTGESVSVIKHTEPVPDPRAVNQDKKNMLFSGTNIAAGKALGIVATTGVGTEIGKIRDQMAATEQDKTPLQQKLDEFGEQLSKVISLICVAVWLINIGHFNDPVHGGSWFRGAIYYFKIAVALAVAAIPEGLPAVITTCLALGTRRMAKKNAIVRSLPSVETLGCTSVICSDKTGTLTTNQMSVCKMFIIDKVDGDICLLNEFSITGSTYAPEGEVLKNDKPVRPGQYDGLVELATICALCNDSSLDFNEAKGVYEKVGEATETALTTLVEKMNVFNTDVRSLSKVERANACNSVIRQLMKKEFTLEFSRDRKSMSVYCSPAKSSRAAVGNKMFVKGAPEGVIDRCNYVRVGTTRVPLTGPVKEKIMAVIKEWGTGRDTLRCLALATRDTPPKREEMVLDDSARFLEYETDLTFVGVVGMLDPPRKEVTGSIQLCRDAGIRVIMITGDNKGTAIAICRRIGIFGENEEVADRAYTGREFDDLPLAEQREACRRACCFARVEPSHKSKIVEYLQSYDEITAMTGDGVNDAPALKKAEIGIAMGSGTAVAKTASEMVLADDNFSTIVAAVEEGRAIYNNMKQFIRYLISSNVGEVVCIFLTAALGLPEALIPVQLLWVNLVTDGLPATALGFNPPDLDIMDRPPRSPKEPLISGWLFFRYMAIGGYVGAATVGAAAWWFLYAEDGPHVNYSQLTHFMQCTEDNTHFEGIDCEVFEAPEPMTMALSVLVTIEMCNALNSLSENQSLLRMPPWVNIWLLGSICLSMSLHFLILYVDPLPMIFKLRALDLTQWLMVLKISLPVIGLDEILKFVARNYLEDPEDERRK
UniProt P46821: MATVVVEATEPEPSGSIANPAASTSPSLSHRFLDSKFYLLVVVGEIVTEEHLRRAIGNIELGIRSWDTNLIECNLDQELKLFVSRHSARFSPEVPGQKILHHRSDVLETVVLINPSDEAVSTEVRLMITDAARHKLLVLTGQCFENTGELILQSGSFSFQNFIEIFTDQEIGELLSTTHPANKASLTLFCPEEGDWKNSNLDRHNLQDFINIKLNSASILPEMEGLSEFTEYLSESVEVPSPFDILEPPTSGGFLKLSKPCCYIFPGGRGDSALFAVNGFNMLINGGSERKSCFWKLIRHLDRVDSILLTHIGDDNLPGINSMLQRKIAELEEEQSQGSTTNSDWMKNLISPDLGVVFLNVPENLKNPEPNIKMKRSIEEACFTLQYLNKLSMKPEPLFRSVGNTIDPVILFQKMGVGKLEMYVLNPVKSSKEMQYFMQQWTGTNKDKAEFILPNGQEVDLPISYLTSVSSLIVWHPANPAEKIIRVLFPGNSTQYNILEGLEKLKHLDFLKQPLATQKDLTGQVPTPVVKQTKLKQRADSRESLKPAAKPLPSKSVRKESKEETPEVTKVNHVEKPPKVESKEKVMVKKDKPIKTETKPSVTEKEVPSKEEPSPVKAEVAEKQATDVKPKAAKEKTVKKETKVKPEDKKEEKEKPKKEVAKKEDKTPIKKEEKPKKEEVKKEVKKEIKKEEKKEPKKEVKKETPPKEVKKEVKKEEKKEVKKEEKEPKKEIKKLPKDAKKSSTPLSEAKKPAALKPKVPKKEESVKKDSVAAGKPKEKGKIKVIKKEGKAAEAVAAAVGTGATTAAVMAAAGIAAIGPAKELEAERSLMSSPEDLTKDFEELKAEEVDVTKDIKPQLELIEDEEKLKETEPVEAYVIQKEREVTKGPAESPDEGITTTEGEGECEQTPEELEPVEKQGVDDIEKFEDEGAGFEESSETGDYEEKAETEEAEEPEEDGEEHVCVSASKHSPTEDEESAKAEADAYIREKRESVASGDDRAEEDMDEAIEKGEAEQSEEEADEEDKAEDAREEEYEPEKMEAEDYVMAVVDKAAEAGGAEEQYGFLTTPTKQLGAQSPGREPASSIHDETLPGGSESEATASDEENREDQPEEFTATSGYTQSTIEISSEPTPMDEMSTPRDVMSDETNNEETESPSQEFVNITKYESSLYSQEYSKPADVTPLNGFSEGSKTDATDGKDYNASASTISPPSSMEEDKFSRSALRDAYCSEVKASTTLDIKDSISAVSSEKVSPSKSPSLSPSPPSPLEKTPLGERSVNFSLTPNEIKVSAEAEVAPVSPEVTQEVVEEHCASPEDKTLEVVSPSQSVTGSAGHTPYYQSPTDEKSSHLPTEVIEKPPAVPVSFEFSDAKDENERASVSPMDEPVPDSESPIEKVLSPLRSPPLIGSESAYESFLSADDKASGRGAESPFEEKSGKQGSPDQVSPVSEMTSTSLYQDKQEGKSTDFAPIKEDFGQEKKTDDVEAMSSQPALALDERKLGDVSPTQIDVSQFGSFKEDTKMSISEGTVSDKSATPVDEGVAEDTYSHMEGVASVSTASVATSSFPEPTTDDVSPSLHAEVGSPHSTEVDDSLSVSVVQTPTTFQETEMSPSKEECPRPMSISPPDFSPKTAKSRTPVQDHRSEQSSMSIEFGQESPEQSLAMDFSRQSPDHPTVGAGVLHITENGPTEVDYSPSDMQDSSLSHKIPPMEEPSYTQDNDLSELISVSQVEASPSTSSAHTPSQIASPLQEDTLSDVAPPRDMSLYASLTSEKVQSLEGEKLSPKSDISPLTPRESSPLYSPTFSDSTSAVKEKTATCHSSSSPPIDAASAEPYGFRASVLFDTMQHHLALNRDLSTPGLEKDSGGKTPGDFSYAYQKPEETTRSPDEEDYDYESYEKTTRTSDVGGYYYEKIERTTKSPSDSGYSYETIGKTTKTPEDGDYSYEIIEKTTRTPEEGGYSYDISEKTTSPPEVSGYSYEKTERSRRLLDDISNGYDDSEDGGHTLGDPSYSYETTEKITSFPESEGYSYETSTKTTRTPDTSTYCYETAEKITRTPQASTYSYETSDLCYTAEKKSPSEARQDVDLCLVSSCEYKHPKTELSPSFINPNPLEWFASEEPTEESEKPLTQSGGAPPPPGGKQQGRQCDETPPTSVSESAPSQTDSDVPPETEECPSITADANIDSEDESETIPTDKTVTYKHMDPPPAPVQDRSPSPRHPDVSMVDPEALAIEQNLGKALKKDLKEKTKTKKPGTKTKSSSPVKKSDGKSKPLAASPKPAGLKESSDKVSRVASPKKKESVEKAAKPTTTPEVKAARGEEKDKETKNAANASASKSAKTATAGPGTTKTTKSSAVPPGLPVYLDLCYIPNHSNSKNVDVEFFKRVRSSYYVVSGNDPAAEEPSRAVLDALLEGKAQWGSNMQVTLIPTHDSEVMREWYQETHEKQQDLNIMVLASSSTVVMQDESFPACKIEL
UniProt P19474: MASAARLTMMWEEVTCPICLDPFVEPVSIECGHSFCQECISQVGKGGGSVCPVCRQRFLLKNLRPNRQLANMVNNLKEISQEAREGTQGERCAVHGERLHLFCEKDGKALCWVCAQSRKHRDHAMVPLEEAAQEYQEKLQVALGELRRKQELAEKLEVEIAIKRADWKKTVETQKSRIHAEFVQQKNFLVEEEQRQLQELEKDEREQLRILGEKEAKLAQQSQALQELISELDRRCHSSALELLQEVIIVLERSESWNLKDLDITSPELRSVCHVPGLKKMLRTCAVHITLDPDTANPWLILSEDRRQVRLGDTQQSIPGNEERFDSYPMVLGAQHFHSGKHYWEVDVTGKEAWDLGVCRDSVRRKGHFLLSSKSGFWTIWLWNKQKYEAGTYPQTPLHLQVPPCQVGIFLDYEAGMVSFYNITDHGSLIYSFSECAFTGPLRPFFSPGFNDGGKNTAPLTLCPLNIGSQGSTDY

What follows are substances tested against T1, 3xFLAG-B12 (UniProt Q9NXW2) (assay: affinity purification with mass spectrometry; 3xFLAG-B12 stable Flp-In 293 T-REx cells; digitonin-permeabilised, pellet lysed in 50 mM Hepes pH 7.5, 150 mM NaCl, 1% deoxy Big CHAP; anti-FLAG M2 antibody and Protein G magnetic beads, 4°C; eluted with 3xFLAG peptide; shot gun mass spectrometry; parental cells as control).
T1 sequence: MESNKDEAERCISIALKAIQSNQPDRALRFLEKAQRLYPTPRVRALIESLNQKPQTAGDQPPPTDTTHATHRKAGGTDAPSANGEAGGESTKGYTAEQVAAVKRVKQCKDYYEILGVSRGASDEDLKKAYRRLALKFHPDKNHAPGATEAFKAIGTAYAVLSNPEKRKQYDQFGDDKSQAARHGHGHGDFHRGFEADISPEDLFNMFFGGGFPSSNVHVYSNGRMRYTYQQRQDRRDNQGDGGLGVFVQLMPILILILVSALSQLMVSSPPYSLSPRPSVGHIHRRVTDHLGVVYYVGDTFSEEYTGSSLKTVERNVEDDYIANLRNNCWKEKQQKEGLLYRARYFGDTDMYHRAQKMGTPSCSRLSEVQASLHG

| Substance | binding |
| --- | --- |
| EEF1A1 (from UniProt P68104 1-462) | binds |
| BAG2 (from UniProt O95816 1-211) | binds |
| ITPR3 (from UniProt Q14573 1-2671) | binds |
| VCP (from UniProt P55072 1-806) | binds |
| MDN1 (from UniProt Q9NU22 1-5596) | binds |
| TUBB4A (from UniProt P04350 1-444) | binds |
| CANX (from UniProt P27824 21-592) | binds |
| CAD (from UniProt P27708 1-2225) | binds |
| ATP5A1 (from UniProt P25705 44-553) | binds |
| SLC25A4 (from UniProt P12235 1-298) | binds |
| ATP5B (from UniProt P06576 48-529) | binds |
| PRKDC (from UniProt P78527 1-4128) | binds |
| GCN1L1 (from UniProt Q92616 1-2671) | binds |
| HSPA9 (from UniProt P38646 47-679) | binds |
| COPB1 (from UniProt P53618 1-953) | binds |
| HSPA1L (from UniProt P34931 1-641) | binds |
| STK38 (from UniProt Q15208 1-465) | binds |
| ATAD3A (from UniProt Q9NVI7-1) | binds |
| COPA (from UniProt P53621 1-1224) | binds |
| TUBB3 (from UniProt Q13509 1-450) | binds |
| NUP210 (from UniProt Q8TEM1 27-1887) | binds |
| TUBB2A (from UniProt Q13885 1-445) | binds |
| TUBB1 (from UniProt Q9H4B7 1-451) | binds |
| AIFM1 (from UniProt O95831) | binds |
| ATP2A1 (from UniProt O14983 1-1001) | binds |
| MAP1B (from UniProt P46821 1-2468) | binds |
| PARP1 (from UniProt P09874 1-1014) | binds |
| TRIM21 (from UniProt P19474 1-475) | binds |
| TUBB (from UniProt P07437 1-444) | binds |
| Hsc70 (from UniProt P11142 1-646) | binds |

Results are given in words; binding and its absence hold for the method and conditions named. Binding seen in cells or lysates may run through a third protein. A yes stands for co-enrichment or nearness to the bait. Other partners may have been found. Where a sequence is shown, tags or fusion partners need not be part of it.
